Data as given in PubChem BioAssay AID1259254 (NCATS, 2017)
The whole screen tested about 59,000 reagents; below is a random part of them. About 1,550 of all reagents (2.6%) count as active. 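G2 share is only a proxy for re-replication; each gene was hit by three separate siRNAs, and active genes were retested.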 The numbers tell different reagents against one gene apart. Further read-outs or replicates are left out here. Reagent sequences are not shown. Not stated in the record: the amount of reagent.

Assay: 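Gene knock-downs that lead to re-replication, shown by excess G2 DNA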 (primary screen)
System: human HCT116 colorectal cancer cells
Reagents: single siRNA against human genes
Duration: 3 days
Measured: 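Imaged Hoechst DNA stain sorts each cell into a cycle phase by DNA amount; per plate, G2 fraction set to 0% for non-targeting and 100% for GMNN siRNA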
Direction: G2 robust z-score: higher = more G2 cells, more excess DNA replication
Call rule: 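Active siRNAs have a G2 robust z of 5 or more median absolute deviations over the median, which in these data means about 38% or higher of GMNN control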

LTA #1 scored G2 robust z-score -0.0493; inactive.
LTA #2 scored G2 robust z-score -0.63; inactive.
LTA #3 gave G2 robust z-score 1.84; inactive.
With knock-down of GJB5 #1, the screen gave G2 robust z-score 0.708; inactive.
GJB5 #2 showed G2 robust z-score 0.466; inactive.
With knock-down of GJB5 #3, the screen gave G2 robust z-score -0.648; inactive.
Depletion of MOBP #1 came out at: G2 robust z-score 1.88; inactive.
With knock-down of MOBP #2, the record shows G2 robust z-score -0.223; inactive.
MOBP #3 showed G2 robust z-score -0.576; inactive.
Silencing of TPP1 #1 gave: G2 robust z-score 0.0299; inactive.
Depletion of TPP1 #2 resulted in: G2 robust z-score -0.503; inactive.
With knock-down of TPP1 #3, the record shows G2 robust z-score -1.15; inactive.
NXF3 #1 showed G2 robust z-score -1.06; inactive.
After knock-down of NXF3 #2, the screen gave G2 robust z-score -0.89; inactive.
NXF3 #3 showed G2 robust z-score 2.82; inactive.

Sorted by “G2 robust z-score” (descending): some entries from above.
MOBP #1 → G2 robust z-score: 1.88; Call: inactive
MOBP #2 → G2 robust z-score: -0.223; Call: inactive
GJB5 #3 → G2 robust z-score: -0.648; Call: inactive

Continued:
Against KLF17 #1 the deposit lists G2 robust z-score 2.69; inactive.
With knock-down of KLF17 #2 the results were G2 robust z-score 0.762; inactive.
Silencing of KLF17 #3 gave: G2 robust z-score -0.267; inactive.
DHX40 #1 showed G2 robust z-score 0.28; inactive.
After knock-down of DHX40 #2, the screen gave G2 robust z-score 0.431; inactive.
DHX40 #3 gave G2 robust z-score -0.194; inactive.
After knock-down of SYDE2 #1, the record shows G2 robust z-score -0.503; inactive.
SYDE2 #2 gave G2 robust z-score -0.806; inactive.
Depletion of SYDE2 #3 resulted in: G2 robust z-score -0.41; inactive.
